Reference: patent US5358936A, “Anionic furanose derivatives, methods of making and using the same” (Gordon; Paul, priority 1991, dated 1994)
At least one read-out could not be matched to a standard name with certainty.

Experiment: Dissolution and buffering of suspensions, HCl titration (Example 16)
Conditions: dissolution-titration curve with HCl

Aluminum Complex of 1,2-O-(1-Isopropylidene)-3,5,6-Tri-O-Sulfo-D-Glucofuranose [Compound III:Al]
principal apparent pK: 2.45
